The target in this assay is SFB-tagged NUDT16, wild type (UniProt Q96DE0). In words: affinity purification with mass spectrometry; tandem affinity purification (streptavidin beads, biotin elution, S protein beads) of SFB-NUDT16 from cytoplasmic and chromatin fractions of stably expressing 293T cells; NTEN buffer.

By UniProt entry, the sequences of proteins in these tests, tags left out.
UniProt Q96DE0: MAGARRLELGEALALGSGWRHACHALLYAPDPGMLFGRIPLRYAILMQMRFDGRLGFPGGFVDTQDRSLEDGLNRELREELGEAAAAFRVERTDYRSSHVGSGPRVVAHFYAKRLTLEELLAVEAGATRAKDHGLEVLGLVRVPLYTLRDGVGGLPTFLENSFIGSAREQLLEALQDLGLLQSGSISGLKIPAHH
UniProt P09874: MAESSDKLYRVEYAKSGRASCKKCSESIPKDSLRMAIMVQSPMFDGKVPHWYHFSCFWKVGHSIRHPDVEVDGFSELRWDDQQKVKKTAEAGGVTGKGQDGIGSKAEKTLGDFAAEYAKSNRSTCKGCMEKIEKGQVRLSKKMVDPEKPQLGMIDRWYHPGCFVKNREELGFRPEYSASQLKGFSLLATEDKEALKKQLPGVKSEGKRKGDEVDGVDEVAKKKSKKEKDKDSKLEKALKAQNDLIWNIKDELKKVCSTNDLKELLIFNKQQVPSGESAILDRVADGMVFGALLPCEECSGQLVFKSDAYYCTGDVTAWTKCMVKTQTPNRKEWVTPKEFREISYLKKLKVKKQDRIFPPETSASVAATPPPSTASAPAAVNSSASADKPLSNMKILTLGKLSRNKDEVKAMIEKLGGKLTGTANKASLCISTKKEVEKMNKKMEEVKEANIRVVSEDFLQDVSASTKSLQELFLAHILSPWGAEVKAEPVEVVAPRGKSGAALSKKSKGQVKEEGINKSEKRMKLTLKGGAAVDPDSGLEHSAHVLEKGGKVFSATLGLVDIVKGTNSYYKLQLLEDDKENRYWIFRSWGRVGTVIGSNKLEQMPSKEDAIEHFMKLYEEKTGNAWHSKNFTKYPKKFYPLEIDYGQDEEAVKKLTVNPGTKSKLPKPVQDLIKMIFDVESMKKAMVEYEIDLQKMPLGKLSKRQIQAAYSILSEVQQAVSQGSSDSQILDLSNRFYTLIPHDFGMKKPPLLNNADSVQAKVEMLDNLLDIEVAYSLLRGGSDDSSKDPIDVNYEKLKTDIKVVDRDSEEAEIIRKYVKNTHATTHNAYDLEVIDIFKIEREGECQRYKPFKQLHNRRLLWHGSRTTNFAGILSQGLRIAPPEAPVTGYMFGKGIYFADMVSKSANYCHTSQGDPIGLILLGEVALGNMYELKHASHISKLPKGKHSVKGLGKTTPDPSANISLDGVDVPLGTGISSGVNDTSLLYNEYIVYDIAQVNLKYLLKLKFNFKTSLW

For one substance, binding results are on record in article PMC11039996.

These are yes or no findings as the source states them, for the method shown. Binding seen in cells or lysates may run through a third protein. A yes stands for co-enrichment or nearness to the bait. Other partners may have been found.

Take “PARP1, endogenous (from UniProt P09874 1-1014)”: the binding result was “binds”.
